From PubChem BioAssay AID1487 (National Center for Advancing Translational Sciences (NCATS), 2009)
Hit rate of the full screen: of about 200,000 compounds, about 25 (0.01%) were called active. This list was built around the results that the source calls inconclusive (neither active nor inactive); the mix of calls is not that of the screen. Calls follow the shape of the dose curve; as a rule, active = well fitted inhibition curve with a large enough effect in the signal ratio, with a control signal flat (not every such curve was filed as active); inconclusive = small, poorly fitted or top-dose-only effect, or effect the other way, or a change in a side signal; inactive = flat fitted curve, though single readings scatter; the % refers to the signal ratio. Potencies of inconclusive entries are doubtful fits and often do not repeat.
% is scaled to controls: 0 for no effect and ±100 for the full control effect; potency is read from the fitted curve at half-maximal effect.

Experiment: qHTS Assay for Modulators of Lamin A Splicing
Settings: HeLa LMNA splicing GFP/RFP minigene ratio, 48 h; ratio change, negative = inhibition: at 46.1 µM (top of the series) unless noted
Procedure, shortened: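 Read-out is the ratio of GFP to DsRed2 object intensity, acquired by 488 nm laser-scanning cytometry on HeLa lamin A-EGFP minigene reporter cells. Compound incubation 48 hrs at 37 °C in Opti-MEM with 2% FBS; DMSO 0.5% final.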
For `O=C(Cn1c(=O)nc(-c2ccccc2)c2ccccc21)NCc1ccccc1Cl`, the ratio change, negative = inhibition was inconclusive: -19.2% [at 46 µM]. For `CC(=O)c1ccc(NC(=O)CSc2nc(=O)n(Cc3ccncc3)c3c2CCC3)cc1`, the ratio change, negative = inhibition was inconclusive: -7.98% [at 46 µM]. For `CC(=O)c1ccc(N2CCN(C(=O)Nc3ccc(F)cc3)CC2)cc1`, the ratio change, negative = inhibition was inconclusive: 5.61% [at 46 µM]. For `CCc1ccc(NC(=O)Cn2ccn(-c3ccc(C)c(C)c3)c(=O)c2=O)cc1`, the ratio change, negative = inhibition was “inactive”. With `COc1ccc(C2=NN(C(=O)CSc3nc4ncc(Cl)cc4[nH]3)C(c3ccco3)C2)cc1` (stereo not drawn) the ratio change, negative = inhibition was inconclusive: -27.3% [at 46 µM]. In the case of `COc1ccc(OC)c(NC(=O)C2CCCCC2)c1`, the ratio change, negative = inhibition is reported as inconclusive: 7.75%. For `CC(C)(C)n1nc2c(c1NC(=O)Cc1ccccc1)CS(=O)(=O)C2`, the ratio change, negative = inhibition was inconclusive: 10.5% [at 46 µM]. With `CN1CCN(Cc2cc(COCc3ccccc3)c3cccnc3c2O)CC1` the ratio change, negative = inhibition was inconclusive: -25.2%. For `CCOC(=O)C1=C(C)NC(=O)NC1c1ccc(-c2ccccc2F)o1` (stereo not drawn), the ratio change, negative = inhibition was inconclusive: 6.49%. With `CC(C)NC(=O)c1onc(CSc2cccc3ccccc23)c1C(=O)O` the Potency was inconclusive: 31.6 µM [inhibitor, single point]. With `N#Cc1ccccc1N=C1CCCN1Cc1ccccc1` the ratio change, negative = inhibition was inconclusive: 11.2%. For `Cc1cccn2c(=O)c(C(=O)NCc3cccc(F)c3)cnc12`, the ratio change, negative = inhibition was inconclusive: 16.5% [at 46 µM]. In the case of `N#C/C(=N\Nc1ccc(S(=O)(=O)N2CCOCC2)cc1)C(N)=S`, the ratio change, negative = inhibition is reported as inconclusive: -29.1% [at 46 µM]. With `CN(C)CCN(Cc1ccccc1)c1ccccn1` the Potency was inconclusive: 35.5 µM [inhibitor, partial curve, poor fit]. For `Cc1ccccc1Oc1nc(-c2ccccn2)nc2ccccc12`, the ratio change, negative = inhibition was inconclusive: -17.9% [at 46 µM]. With `CC(C)(C)c1ccc(S(=O)(=O)NCCc2ccncc2)cc1` the Potency was inconclusive: 12.6 µM [fluorescent, single point]. In the case of `CC(=O)Nc1ccc(Nc2c([N+](=O)[O-])c(=O)n(-c3ccccc3)c3ccccc23)cc1`, the ratio change, negative = inhibition is reported as “inactive”. With `CCC(C)(C)n1nnnc1CN1CCC(c2nc3ccc(C)cc3[nH]2)CC1` the ratio change, negative = inhibition was “inactive”. With `CCOC(=O)C1=C(c2ccccc2)NC(=O)N(C(C)=O)C1c1cccc([N+](=O)[O-])c1` (stereo not drawn) the ratio change, negative = inhibition was inconclusive: -8.9% [at 46 µM]. For `CC(=O)Nc1cccc(OCC(=O)NS(=O)(=O)c2ccc(C)cc2)c1`, the ratio change, negative = inhibition was “inactive”. For `CCOC(=O)c1c(C)[nH]c(C(=O)CN2CC(C)OC(C)C2)c1C` (stereo not drawn), the ratio change, negative = inhibition was “inactive”. In the case of `O=C(CCn1cccn1)Nc1ccc(Br)cc1F`, the ratio change, negative = inhibition is reported as “inactive”. With `CCN(CC)CCCNC(=O)Cc1csc2nc(-c3ccc(Cl)cc3)cn12` the ratio change, negative = inhibition was inconclusive: -23.7% [at 46 µM]. With `C=C(C)CN(CC)C(=O)CSc1nc(O)cc(=O)n1C1CCCC1` the ratio change, negative = inhibition was inconclusive: -17.8% [at 46 µM]. With `COc1cccc(Nc2ncc3nc(-c4ccc(F)cc4)c(=O)n(C)c3n2)c1` the Potency was inconclusive: 11.2 µM [rising, single point]. In the case of `CCN1CCN(Cc2c(O)ccc3c2O/C(=C\c2ccc(C)cc2)C3=O)CC1`, the Potency is reported as inconclusive: 11.2 µM [inhibitor, partial curve, poor fit]. For `CCCCCOC(=O)NC1CCS(=O)(=O)C1` (stereo not drawn), the ratio change, negative = inhibition was inconclusive: 22.1% [at 46 µM]. With `CC(CCc1ccccc1)NC(=O)Cn1c(=O)nc(-c2ccccc2)c2ccccc21` (stereo not drawn) the ratio change, negative = inhibition was inconclusive: -28.4% [at 46 µM]. With `CCOC(=O)N1CCN(C(=O)c2ccc(CNS(=O)(=O)c3ccc(C)cc3)cc2)CC1` the ratio change, negative = inhibition was inconclusive: 3.11%. With `CCOC(=O)/C(=C/c1ccc(OC(=O)c2ccncc2)cc1)C(C)=O` the ratio change, negative = inhibition was inconclusive: -27.3% [at 46 µM]. For `O=C(Cc1ccc(-c2ccccc2)cc1)NCCS(=O)(=O)N1CCN(c2ccccc2)CC1`, the ratio change, negative = inhibition was inconclusive: -0.279% [at 46 µM]. In the case of `O=C(CCCc1nc2ccccc2s1)NNC(=O)CCN1CCN(Cc2ccccc2)CC1`, the ratio change, negative = inhibition is reported as “inactive”. For `CC(=O)c1ccc(S(=O)(=O)Nc2ccc(-c3ccc4nnc(C)n4n3)cc2)cc1`, the ratio change, negative = inhibition was inconclusive: -38.4% [at 46 µM]. For `CCOc1cc(C(=O)NCC(c2ccc(N(C)C)cc2)N2CCOCC2)cc(OCC)c1OCC` (stereo not drawn), the ratio change, negative = inhibition was inconclusive: -42.8% [at 46 µM]. In the case of `Cc1cc(Nc2cccc(C(F)(F)F)c2)nc2ccc(NC(=O)c3cccc(Cl)c3)cc12`, the Potency is reported as inconclusive: 8.91 µM [inhibitor, partial curve]. In the case of `Cc1ccc(CSc2ncnc3c2cnn3Cc2ccccc2)cc1C`, the Potency is reported as inconclusive: 35.5 µM [falling, single point]. In the case of `Cn1cc(-c2nc3cncnc3n(Cc3ccccc3Cl)c2=O)c2ccccc21`, the ratio change, negative = inhibition is reported as inconclusive: 6.14%. For `Fc1ccc(CNCc2ccccc2Cl)cc1`, the ratio change, negative = inhibition was inconclusive: -25.2% [at 46 µM]. With `COc1ccc(-n2c(C)cc(-c3cn4cccc(C)c4n3)c2C)cc1` the ratio change, negative = inhibition was inconclusive: -38.7% [at 46 µM]. With `CCCC[C@@H]1C[C@H]1[C@@H](NC(=O)c1ccco1)c1ccc(Cl)cc1` the Potency was inconclusive: 35.5 µM [falling, single point]. With `CC1CCc2nc(N)c(C#N)c(-c3cccn3C)c2C1` (stereo not drawn) the ratio change, negative = inhibition was inconclusive: 22.9%. In the case of `Cc1ccc(OCC(=O)Nc2ccc(N3CCN(C(=O)c4ccco4)CC3)cc2)cc1`, the ratio change, negative = inhibition is reported as inconclusive: 11.3% [at 46 µM]. In the case of `CCC(CC)c1nnc(NC(=O)CCN2C(=O)c3ccccc3C2=O)s1`, the ratio change, negative = inhibition is reported as inconclusive: 11.6%. For `CN1CCC(N(C)C(=O)/C=C/c2cn(-c3ccccc3)nc2-c2cccs2)CC1`, the ratio change, negative = inhibition was inconclusive: -40.5% [at 46 µM]. For `Cc1ccc(NC2=C(N3CCCCC3)C(=O)c3ccccc3C2=O)cc1`, the ratio change, negative = inhibition was “inactive”. In the case of `CCc1ccc(-n2c(C)cc(/C=N/NC(=O)OC)c2C)cc1`, the Potency is reported as inconclusive: 35.5 µM [falling, single point]. With `Cc1ccc2c3c1C(=O)C(=O)N3C(C)(C)CC2C` (stereo not drawn) the ratio change, negative = inhibition was “inactive”. In the case of `CCOc1cc(CNC(=O)c2ccc3nc(C(C)C)oc3c2)cc(OCC)c1OCC`, the ratio change, negative = inhibition is reported as inconclusive: 12.5% [at 46 µM]. With `OC1CCCN(Cc2ccc3c(c2)Cc2ccccc2-3)C1` (stereo not drawn) the ratio change, negative = inhibition was “inactive”. For `CCc1nc(N2CCCC2C(=O)O)c2oc3ccccc3c2n1` (stereo not drawn), the ratio change, negative = inhibition was inconclusive: 1.25%. With `O=C(/C=C/c1cccc([N+](=O)[O-])c1)NC(=S)Nc1ccc(CN2CCOCC2)cc1` the ratio change, negative = inhibition was “inactive”. With `Cc1ccc(NC(=S)Nc2nc(CC(=O)Nc3ccccc3)cs2)cc1` the ratio change, negative = inhibition was inconclusive: 1.48%. With `COc1ccc(CCNC(=O)C(=O)NCc2ccc(C(C)C)cc2)cc1OC` the ratio change, negative = inhibition was “inactive”. With `O=C(CSc1nc(=O)n(Cc2ccncc2)c2c1CCC2)Nc1ccc(F)cc1F` the ratio change, negative = inhibition was inconclusive: -10.7% [at 46 µM]. In the case of `COc1ccc(Cc2n[nH]c(=O)c3ccccc23)cc1OC`, the ratio change, negative = inhibition is reported as “inactive”. In the case of `CSc1nc2c(sc3ccccc32)c(=O)n1Cc1ccc(C)cc1`, the ratio change, negative = inhibition is reported as inconclusive: 16.1% [at 46 µM]. In the case of `CCn1c(O)c(/C=N/N=C2CCCC2)c2ccc(C3=NNC(=O)CC3)cc21`, the ratio change, negative = inhibition is reported as “inactive”. In the case of `Cc1ccc(CNC(=O)c2cc(-c3ccc(C)cc3)nc3n[nH]c(-c4cccc([N+](=O)[O-])c4)c23)cc1`, the Potency is reported as inconclusive: 12.6 µM [rising, partial curve]. In the case of `Nc1ccc(-c2n[nH]c(=O)c3ccccc23)cc1N`, the ratio change, negative = inhibition is reported as “inactive”. For `O=C1c2cccc3cccc(c23)C(=O)N1Cc1ccccc1`, the ratio change, negative = inhibition was inconclusive: 15.7% [at 46 µM]. In the case of `C=CCNc1sc(C(=O)c2ccccc2)c(N)c1C#N`, the ratio change, negative = inhibition is reported as “inactive”. With `CC1CCN(C(=O)CSc2nc(N)c3c4c(sc3n2)CN(C)CC4)CC1` the ratio change, negative = inhibition was inconclusive: 9.82%. For `O=C1CC(N2CCC(O)(c3ccc(Br)cc3)CC2)C(=O)N1c1ccc(Cl)cc1` (stereo not drawn), the ratio change, negative = inhibition was “inactive”. For `COc1ccc(-c2cn3nc(N4CCC(C(=O)Nc5cc(Cl)ccc5C)CC4)sc3n2)cc1`, the ratio change, negative = inhibition was inconclusive: -28.4% [at 46 µM]. For `COc1ccc(N(CC(=O)NC2CCCCC2)C(=O)CNC(=O)c2ccco2)cc1OC`, the ratio change, negative = inhibition was “inactive”. For `CCNC(=O)CC1C(=O)N(c2ccc(F)cc2)C(=O)N1CCc1sccc1C` (stereo not drawn), the Potency was inconclusive: 0.447 µM [activator, partial curve]. With `CC(C)n1nc(C(=O)Nc2ccccc2N2CCOCC2)c2ccccc2c1=O` the ratio change, negative = inhibition was inconclusive: 4.28%. With `Cc1ccc(NC(=O)Nc2ccccc2CC[N+](=O)[O-])cc1` the ratio change, negative = inhibition was inconclusive: -1.12% [at 9.22 µM]. In the case of `Cc1cc(C)cc(NC(=O)c2ccc([N+](=O)[O-])o2)c1`, the Potency is reported as inconclusive: 35.5 µM [rising, single point]. For `O=C(CCn1cnc2ccccc21)N/N=C/c1ccc(O)cc1`, the ratio change, negative = inhibition was “inactive”. In the case of `CC1CCN(c2ncnc3c2c(-c2ccccc2)cn3-c2ccc(Br)cc2)CC1`, the ratio change, negative = inhibition is reported as inconclusive: -3.64% [at 46 µM]. For `CCc1ccc(-n2c(=O)c3c(C)c(C(=O)N(C)C)sc3n(CC(=O)NCC3CCCO3)c2=O)cc1` (stereo not drawn), the ratio change, negative = inhibition was inconclusive: 0.0285% [at 46 µM]. For `COc1ccc(C(=O)/C=C/C(=O)N(Cc2ccc3c(c2)OCO3)C(C(=O)NC2CCCCC2)c2ccncc2)c(O)c1` (stereo not drawn), the Potency was inconclusive: 35.5 µM [inhibitor, single point]. For `C/C(Cn1cnc([N+](=O)[O-])n1)=N\NC(=O)c1cccnc1`, the ratio change, negative = inhibition was “inactive”. In the case of `O=C1CCc2ccc(NC(=O)C3CC3)cc2N1`, the ratio change, negative = inhibition is reported as inconclusive: 14.2% [at 46 µM]. For `N#C/C(=C\c1ccc(OCc2ccc(C(=O)O)cc2)cc1)C(=O)N1CCOCC1`, the ratio change, negative = inhibition was “inactive”. With `CCN1CCN(C(=O)c2ccccc2N(Cc2ccccc2)S(=O)(=O)c2ccc(C)cc2)CC1` the ratio change, negative = inhibition was “inactive”. For `CN1CCN(c2ccc(NC(=O)c3ccc4c(c3)OCCO4)cc2Cl)CC1`, the ratio change, negative = inhibition was inconclusive: -0.325% [at 46 µM].
